Results deposited as PubChem BioAssay AID1259308 (NCATS, 2017).

- Aim: 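Candidate targets for better recombinant protein yield in mammalian cells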 (primary screen)
- Cells: human HEK293 embryonic kidney cells stably expressing firefly luciferase (HEK-CMV-Luc2-Hygro)
- Reagent: single siRNA against human genes, 0.8 pmol siRNA per well
- Duration: 72 h
- Detection: 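Reporter luminescence and viable-cell signal on separate replicate plates, given as percent of non-targeting control and median/MAD z-scores, plus per-cell luciferase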
- Reading the numbers: total luciferase, z-score and total luciferase, % of control: higher = more reporter protein produced
- Rule for the call: 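An siRNA counts as active if its total luciferase robust z-score exceeds 3; genes with two or more such siRNAs out of three were retested with fresh siRNAs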
- Meaning of the calls: active = raised luciferase; inactive = no rise
In all, the deposit lists about 59,000 reagents; below is a part drawn at random. Of all reagents, about 1,510 (2.6%) got an active call. 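Calls use total luciferase alone and ignore viability, so some active siRNAs may act by altering cell number.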 Reagents against one gene are numbered here. Further read-outs or replicates are left out here.

target	siRNA no.	total luciferase, z-score	total luciferase, % of control	Outcome
MRPL21 (mitochondrial ribosomal protein L21)	1	2.02	122	inactive
MRPL21 (mitochondrial ribosomal protein L21)	2	0.102	83.9	inactive
MRPL21 (mitochondrial ribosomal protein L21)	3	0.576	93.3	inactive
AK4 (adenylate kinase 4)	1	0.416	90.2	inactive
AK4 (adenylate kinase 4)	2	1.52	112	inactive
AK4 (adenylate kinase 4)	3	-0.708	67.8	inactive
AK4 (adenylate kinase 4)	4	-0.251	76.9	inactive
AK4 (adenylate kinase 4)	5	1.26	107	inactive
AK4 (adenylate kinase 4)	6	0.163	85.1	inactive
MYORG (myogenesis regulating glycosidase)	1	1.67	115	inactive
MYORG (myogenesis regulating glycosidase)	2	2.02	122	inactive
MYORG (myogenesis regulating glycosidase)	3	-0.685	68.3	inactive
PDCL3 (phosducin like 3)	1	1.41	110	inactive
PDCL3 (phosducin like 3)	2	2.31	128	inactive
PDCL3 (phosducin like 3)	3	0.997	102	inactive

Continued; the last 3 above are carried over.
target	siRNA no.	total luciferase, z-score	total luciferase, % of control	Outcome
PDCL3 (phosducin like 3)	1	1.41	110	inactive
PDCL3 (phosducin like 3)	2	2.31	128	inactive
PDCL3 (phosducin like 3)	3	0.997	102	inactive
TKFC (triokinase and FMN cyclase)	1	-0.659	68.8	inactive
TKFC (triokinase and FMN cyclase)	2	-0.373	74.5	inactive
TKFC (triokinase and FMN cyclase)	3	1	102	inactive
REPS2 (RALBP1 associated Eps domain containing 2)	1	0.288	87.6	inactive
REPS2 (RALBP1 associated Eps domain containing 2)	2	-0.0603	80.7	inactive
REPS2 (RALBP1 associated Eps domain containing 2)	3	-1.61	50	inactive
OR8K5 (olfactory receptor family 8 subfamily K member 5)	1	-0.472	72.5	inactive
OR8K5 (olfactory receptor family 8 subfamily K member 5)	2	0.602	93.9	inactive
OR8K5 (olfactory receptor family 8 subfamily K member 5)	3	-2.14	39.3	inactive
